# PubChem BioAssay AID445 (National Center for Advancing Translational Sciences (NCATS), 2006)
# The list shows a part of the results. Shown are side measurements of this screen, not its main read-out; they come without a call. The list favours compounds with an active or inconclusive main result. The note in brackets gives the kind of curve behind each potency; many fits are weak.
# Test: IkB Signaling
# Conditions: ABC-DLBCL IkBa-CBG/CBR dual luciferase ratio (green luciferase fused to IkBa over red control in OCI-Ly3 lymphoma cells), 4 h
# How it was run: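 In this assay, an IκBα–CBG68 fusion accumulates when IKK-driven degradation is blocked; native CBR normalizes for cell number. OCI-Ly3 cells were treated 4 h with compound and doxycycline, then green and red light read after Chroma-Glo addition.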
# [1] = measured here: control luc red channel unless noted
structure (smiles),measurement,setting,value
c1ccc2c(c1)oc1c(N3CCN(Cc4ccc5c(c4)OCO5)CC3)ncnc12,AC50,[1],"6.31 µM [falling, partial curve]"
O=c1c2ccccc2n2c(-c3ccccc3F)nnc2n1CCc1ccccc1,AC50,[1],"12.6 µM [falling, partial curve]"
COc1ccc(C(=O)Cn2c(Br)nc3c2c(=O)n(C)c(=O)n3C)cc1,AC50,[1],"39.8 µM [falling, single point]"
COc1cc(OC)c(N(C)C(=O)c2cc3c(=O)oc4ccccc4c3s2)cc1Cl,AC50,[1],"31.6 µM [falling, single point]"
Cc1ccc(-n2nc(C(=O)N(C)Cc3ccccc3)c3c4ccccc4n(C)c3c2=O)cc1,AC50,[1],"3.16 µM [falling, full curve]"
Cc1ccc(C(=O)N(c2ccc(C)cc2)S(=O)(=O)c2ccc(Cl)cc2)cc1,AC50,[1],"3.98 µM [falling, full curve]"
COCCn1c(C)cc(C(=O)COC(=O)c2n[nH]c3ccccc23)c1C,AC50,[1],"2.51 µM [falling, partial curve]"
CCc1ccc(N2CSC3=C(C#N)C(c4cccs4)CC(=O)N3C2)cc1 (configuration not stated),AC50,[1],"10 µM [falling, partial curve]"
O=C(CCC1N=C2c3ccccc3N=C(SCC(=O)Nc3ccc(F)cc3)N2C1=O)NCc1cccs1 (configuration not stated),AC50,[1],"10 µM [falling, partial curve]"
Cc1ccccc1C(=O)N(Cc1ccc(N(C)C)cc1)CC1CCCO1 (configuration not stated),AC50,[1],"25.1 µM [falling, single point]"
CCOC(=O)c1noc2ncnc(NCc3ccccc3OC)c12,AC50,[1],"25.1 µM [falling, partial curve, poor fit]"
COc1ccccc1NC(=O)CSC1=Nc2ccccc2C2=NC(CC(=O)NCc3ccc4c(c3)OCO4)C(=O)N12 (configuration not stated),AC50,[1],"25.1 µM [falling, single point]"
COC(=O)c1ccccc1NC(=O)C1CCCN(c2ncnc3onc(C)c23)C1 (configuration not stated),AC50,[1],"3.16 µM [falling, partial curve]"
Cn1cccc1C(=O)NC(=O)COC(=O)Cc1coc2ccc3ccccc3c12,AC50,[1],"25.1 µM [falling, partial curve]"
CC(NS(=O)(=O)c1ccccc1)C(c1cccs1)N1CCN(c2ccccc2)CC1 (configuration not stated),AC50,[1],"15.8 µM [falling, partial curve]"
COCc1c(C(=O)OCC(=O)N2c3ccccc3CC2C)oc2ccccc12 (configuration not stated),AC50,[1],"31.6 µM [falling, partial curve]"
O=C(Cn1c(=O)nc(-c2ccccc2)c2cc(Cl)ccc21)NCc1ccc(Cl)cc1,AC50,[1],"15.8 µM [falling, partial curve]"
O=C(Nc1cnn(Cc2ccc(Cl)cc2Cl)c1)c1noc2c1CCc1ccccc1-2,AC50,[1],"7.94 µM [falling, full curve]"
COc1ccc(C(CC(=O)Nc2cc(OC)c(OC)c(OC)c2)N2Cc3ccccc3C2=O)cc1 (configuration not stated),AC50,[1],"10 µM [falling, partial curve]"
COc1ccc(CCNS(=O)(=O)c2cc(-c3onc(C)c3C)ccc2OC)cc1OC,AC50,[1],"2.51 µM [rising, partial curve]"
Cc1ccc(C)c(Nc2nn3c(=O)c4cc5c(cc4nc3s2)OCO5)c1,AC50,[1],"10 µM [falling, partial curve]"
CCc1ccc(NC(=O)CSc2nc(=O)n(Cc3ccncc3)c3c2CCC3)cc1,AC50,[1],"25.1 µM [falling, partial curve]"
Cc1cc2c(cc1S(=O)(=O)CCC(=O)N1CCCCC1C)OCC(=O)N2 (configuration not stated),AC50,[1],"25.1 µM [falling, partial curve]"
CCCCN(C)CCNC(=O)CN1C(=O)CSc2ccc(S(=O)(=O)N3CCCCC3)cc21,AC50,[1],"31.6 µM [falling, single point]"
CCOC(=O)N1CCc2c(sc(NCc3cccs3)c2C(=O)Nc2ccc(OC)cc2OC)C1,AC50,[1],"20 µM [falling, single point]"
COc1ccccc1N1CCN(S(=O)(=O)CCNC(=O)Cc2ccc(Cl)cc2)CC1,AC50,[1],"39.8 µM [falling, single point]"
COc1ccc(-c2noc(C3CCCN(C(=O)c4ccccc4OC)C3)n2)cc1OC (configuration not stated),AC50,[1],"3.98 µM [falling, partial curve, poor fit]"
Oc1ccc(Br)cc1-c1nc2cnccn2c1NC1CCCC1,AC50,[1],"31.6 µM [falling, single point]"
Cc1ccc(CCNC(=O)c2c[nH]c3ccc(S(=O)(=O)Nc4cccc(C(F)(F)F)c4)cc3c2=O)cc1,AC50,[1],"5.01 µM [falling, partial curve]"
CCCS(=O)(=O)c1nnnn1-c1cccc(OC)c1,AC50,[1],"2.51 µM [falling, full curve]"
CCC1=C(c2ccc(C)cc2)S(=O)(=O)N=C1N1CCC(C(=O)NCCc2ccc(Cl)cc2)CC1,AC50,[1],"31.6 µM [falling, single point]"
O=S(=O)(NCCOCC(F)(F)F)c1ccc2oc3ccccc3c2c1,AC50,[1],"10 µM [falling, partial curve]"
COc1cccc(NC(=O)CSC2=Nc3ccccc3C3=NC(CC(=O)NCc4ccc5c(c4)OCO5)C(=O)N23)c1 (configuration not stated),AC50,[1],"12.6 µM [falling, single point]"
CCCCNC(=O)c1cnc2sc(N3CCCCCC3)nn2c1=O,AC50,[1],"25.1 µM [rising, partial curve]"
COc1ccc(S(=O)(=O)Nc2ccc(O)c3ccccc23)cc1,AC50,measured here: IkB-luc green channel,"39.8 µM [rising, single point]"
same,AC50,measured here: control luc red channel,"6.31 µM [falling, partial curve]"
COc1ccc(CC(=O)N(Cc2nc(-c3ccc(C)cc3)no2)C(C)C)cc1,AC50,[1],"39.8 µM [falling, single point]"
COc1ccc(C2C(=O)N(C3CCC(C)CC3)CC(=O)N2C2CCCC2)cc1OC (configuration not stated),AC50,[1],"39.8 µM [falling, partial curve]"
CCCCOc1ccccc1C(=O)N(Cc1cccc(F)c1)C1CCS(=O)(=O)C1 (configuration not stated),AC50,[1],"25.1 µM [falling, single point]"
CCOc1ccc(CCNC(=O)CSc2nnnn2-c2ccc(C)cc2C)cc1OCC,AC50,[1],"39.8 µM [falling, single point]"
O=C(NCC(c1cccnc1)N1CCc2ccccc21)c1ccc(F)cc1 (configuration not stated),AC50,[1],"25.1 µM [falling, single point]"
CCOC(=O)CCSc1nc2c(c(C(F)(F)F)c1C#N)CCC2,AC50,[1],"12.6 µM [falling, partial curve]"
CCCOC(=O)CSc1nnc(-c2cc(OC)c(OC)c(OC)c2)o1,AC50,[1],"7.94 µM [falling, partial curve]"
Cc1c(C(=O)N(Cc2ccco2)Cc2ccccc2Cl)oc2ccc(F)cc12,AC50,[1],"10 µM [falling, partial curve]"
COc1ccc(OC(C)C(=O)NCc2nc(-c3cccc(C)c3)no2)cc1 (configuration not stated),AC50,[1],"25.1 µM [falling, partial curve]"
CCS(=O)(=O)c1ccccc1C(=O)Nc1ccc(-c2nc3ccccc3s2)cc1,AC50,[1],"1 µM [rising, full curve, poor fit]"
O=C(Nc1ccc2nc(SCCOc3ccccc3Cl)sc2c1)c1ccc2c(c1)OCO2,AC50,[1],"1 µM [falling, full curve]"
Cc1ccc(S(=O)(=O)NCc2ccc(C(=O)NCCc3cccc(C)c3)cc2)cc1,AC50,[1],"3.98 µM [rising, single point] [measured here: IkB-luc green channel]"
N#Cc1c(C(F)(F)F)cc(-c2cccs2)nc1SCC(=O)Nc1cccc(C(F)(F)F)c1,AC50,[1],"20 µM [falling, partial curve, poor fit]"
O=C(c1ccccc1Br)N1CCC(c2nc3ccccc3o2)CC1,AC50,[1],"31.6 µM [falling, single point]"
Cc1ccc(Cn2c(=O)n(-c3cc(C)cc(C)c3)c(=O)c3oc4ccccc4c32)cc1,AC50,[1],"12.6 µM [falling, partial curve]"
CN1C(=O)C(C)(C)c2cc(S(=O)(=O)N3CCCC3C(=O)Nc3ccc(F)cc3)ccc21 (configuration not stated),AC50,[1],"15.8 µM [falling, partial curve]"
COc1cc(Cl)c(C)cc1NC(=O)c1sc2nc(C)cc(C)c2c1N,AC50,[1],"2.51 µM [falling, full curve]"
Cc1ccsc1CN(C(=O)COc1cccc(C)c1C)C1CCS(=O)(=O)C1 (configuration not stated),AC50,[1],"15.8 µM [falling, partial curve]"
COc1ccccc1NC(=O)C(Cc1ccccc1)NS(=O)(=O)c1cccc2nsnc12 (configuration not stated),AC50,[1],"12.6 µM [falling, partial curve]"
CCCCOC(=O)c1cccc(NC(=O)/C=C/c2ccccc2Cl)c1,AC50,[1],"7.94 µM [falling, full curve]"
O=C(Cn1c(SCC(=O)Nc2ccc(F)cc2)nc2ccccc21)NCc1ccccc1Cl,AC50,[1],"31.6 µM [falling, partial curve]"
COc1ccc(OC)c(NC(=O)CSc2nc3ccccc3c(=O)n2CCC(=O)NC2CCCCC2)c1,AC50,[1],"0.00501 µM [rising, full curve, poor fit]"
CCCn1c(=O)c2[nH]c(-c3ccc(OCC(=O)NCCN)cc3)nc2n(CCC)c1=O,AC50,[1],"12.6 nM [falling, full curve, poor fit] [measured here: IkB-luc green channel]"
COc1cc(OC)cc(C(=O)Nc2cc(-c3nc4cccnc4s3)ccc2C)c1,AC50,[1],"25.1 µM [falling, single point]"
CCNc1nc(N)nc(Oc2ccc(C(=O)OC)cc2)n1,AC50,[1],"15.8 µM [rising, partial curve]"
COc1ccc(NC(=O)C2CCN(S(=O)(=O)c3ccc4c(c3)CCCC(=O)N4)CC2)c(OC)c1,AC50,[1],"25.1 µM [falling, partial curve]"

# A different layout for some results above:
structure (smiles)	measurement	setting	value
CC(NS(=O)(=O)c1ccccc1)C(c1cccs1)N1CCN(c2ccccc2)CC1 (configuration not stated)	AC50	[1]	15.8 µM [falling, partial curve]
COc1ccc(C(CC(=O)Nc2cc(OC)c(OC)c(OC)c2)N2Cc3ccccc3C2=O)cc1 (configuration not stated)	AC50	[1]	10 µM [falling, partial curve]
CCOC(=O)N1CCc2c(sc(NCc3cccs3)c2C(=O)Nc2ccc(OC)cc2OC)C1	AC50	[1]	20 µM [falling, single point]
CCCS(=O)(=O)c1nnnn1-c1cccc(OC)c1	AC50	[1]	2.51 µM [falling, full curve]
COc1cccc(NC(=O)CSC2=Nc3ccccc3C3=NC(CC(=O)NCc4ccc5c(c4)OCO5)C(=O)N23)c1 (configuration not stated)	AC50	[1]	12.6 µM [falling, single point]
COc1ccc(S(=O)(=O)Nc2ccc(O)c3ccccc23)cc1	AC50	measured here: control luc red channel	6.31 µM [falling, partial curve]
CCOC(=O)CCSc1nc2c(c(C(F)(F)F)c1C#N)CCC2	AC50	[1]	12.6 µM [falling, partial curve]
COc1ccc(OC(C)C(=O)NCc2nc(-c3cccc(C)c3)no2)cc1 (configuration not stated)	AC50	[1]	25.1 µM [falling, partial curve]
Cc1ccc(S(=O)(=O)NCc2ccc(C(=O)NCCc3cccc(C)c3)cc2)cc1	AC50	[1]	3.98 µM [rising, single point] [measured here: IkB-luc green channel]
COc1ccc(OC)c(NC(=O)CSc2nc3ccccc3c(=O)n2CCC(=O)NC2CCCCC2)c1	AC50	[1]	0.00501 µM [rising, full curve, poor fit]
CCCn1c(=O)c2[nH]c(-c3ccc(OCC(=O)NCCN)cc3)nc2n(CCC)c1=O	AC50	[1]	12.6 nM [falling, full curve, poor fit] [measured here: IkB-luc green channel]
CCNc1nc(N)nc(Oc2ccc(C(=O)OC)cc2)n1	AC50	[1]	15.8 µM [rising, partial curve]
